System: primary cultures of neurons, isolated from the rat brain cortex
Details: kainic acid 100 μM; compound at 0.1, 1 and 5 μM (lanes 3-5); FIG. 3

CN1C(=O)CN=C(c2ccccc2)c2cc(Cl)ccc21 [Diazepam]
neuroprotective effect against kainic acid: neuroprotective effect of Diazepam observed at all concentrations

Reference: patent US20040014648A1, “Methods for the prevention and/or the treatment of neurological disorders” (FAUST PHARMACEUTICALS, priority 2002, published 2004)
